The list shows only some results of the screen, not a fair sample: it is rich in T/C values a quarter to a half above the control, in often repeated tests (any T/C) and in doses without a T/C. Further doses and runs are listed elsewhere. T/C is the treated group as % of the vehicle group. Some entries give survivors of the animals treated and no T/C: the source holds a T/C of zero for them, seemingly a mark for toxic or unscored doses. Some doses without a T/C left all or most animals alive at the check, yet need not have been tolerated: survival well below the control is almost never listed, so the zero probably covers shortened survival too. Counts of survivors are from the toxicity check (mostly the fifth day) where no day follows; animals may have died later. Schedules are NCI's codes, taken here to give the interval after Q, in days (D) or hours (H), and the number of doses after X. Some entries were tested several times; the results are listed from low to high. Some schedules carry Z or #; the key to these is not given. Additions like (4×) say how often a value occurs here. For survival time, the PubChem record calls one and a half times the control and up active, and a quarter to a half above the control has no call in these data; cut-offs in other NCI protocols can differ. Some T/C values carry the count of animals alive at the toxicity check (mostly the fifth day); without a count, all were alive then.
Test system: P388 leukemia ip, CD2F1 mice, survival T/C
Assay: NCI In Vivo Anticancer Drug Screen. Data for tumor model P388 Leukemia (intraperitoneal) in CD2F1 (CDF1) mice
Settings: T/C endpoint: median survival time, higher T/C = longer survival
[1] = dose: 50.0 mg/kg/injection, schedule: Q01DX005 (ip), vehicle: saline
[2] = dose: 100.0 mg/kg/injection, schedule: Q01DX005 (ip), vehicle: saline
[3] = dose: 200.0 mg/kg/injection, schedule: Q01DX005 (ip), vehicle: saline
[4] = dose: 50.0 mg/kg/injection, schedule: Q01DX005 (ip), vehicle: saline with Tween-80
[5] = dose: 100.0 mg/kg/injection, schedule: Q01DX005 (ip), vehicle: saline with Tween-80
[6] = dose: 240.0 mg/kg/injection, schedule: Q01DX005 (ip), vehicle: Klucel (hydroxypropylcellulose) (HPC)
[7] = dose: 200.0 mg/kg/injection, schedule: Q01DX005 (ip), vehicle: saline with Tween-80
[8] = dose: 200.0 mg/kg/injection, schedule: Q01DX009 (ip), vehicle: saline with Tween-80
[9] = dose: 400.0 mg/kg/injection, schedule: Q01DX009 (ip), vehicle: saline
[10] = dose: 120.0 mg/kg/injection, schedule: Q01DX005 (ip), vehicle: saline with Tween-80
[11] = dose: 240.0 mg/kg/injection, schedule: Q01DX005 (ip), vehicle: saline with Tween-80
[12] = dose: 25.0 mg/kg/injection, schedule: Q01DX009 (ip), vehicle: saline
[13] = dose: 50.0 mg/kg/injection, schedule: Q01DX009 (ip), vehicle: saline
[14] = dose: 200.0 mg/kg/injection, schedule: Q01DX009 (ip), vehicle: saline
[15] = dose: 200.0 mg/kg/injection, schedule: Q01DX009 (ip), vehicle: Klucel (hydroxypropylcellulose) (HPC)
[16] = dose: 100.0 mg/kg/injection, schedule: Q01DX009 (ip), vehicle: saline with Tween-80
[17] = dose: 50.0 mg/kg/injection, schedule: Q01DX009 (ip), vehicle: saline with Tween-80
[18] = dose: 120.0 mg/kg/injection, schedule: Q01DX005 (ip), vehicle: Klucel (hydroxypropylcellulose) (HPC)

## O=CC(CO)CC(C=O)n1cnc2c(=O)[nH]cnc21 (stereo not drawn)
dose: 25.0 mg/kg/injection, schedule: Q01DX005 (ip), vehicle: saline
  T/C: 98, 115, 118, 127 % of control
dose: 37.5 mg/kg/injection, schedule: Q01DX005 (ip), vehicle: saline
  T/C: 132 % of control
[1]
  T/C: 120, 121, 131, 133 % of control
dose: 75.0 mg/kg/injection, schedule: Q01DX005 (ip), vehicle: saline
  T/C: 144 and 146 % of control
[2]
  T/C: 134 (2×), 138 [9 of 10 alive], 156 % of control
[3]
  T/C: 131, 134, 137, 185 % of control
dose: 400.0 mg/kg/injection, schedule: Q01DX005 (ip), vehicle: saline
  T/C: 148, 150, 156, 191 % of control
dose: 600.0 mg/kg/injection, schedule: Q01DX005 (ip), vehicle: saline
  survivor count: 0 of 6 and 1 of 6

## COc1ccc(C(=O)Cc2cc(OC)c(OC)cc2Br)cc1OC
[4]
  survivor count: 6 of 6
[5]
  survivor count: 6 of 6

## COc1cc2c(c(=O)c3ccccc3n2C)c2c1c(=O)c1ccccc1n2C
[6]
  survivor count: 1 of 6

## COc1cc(C(=O)Nc2ccc(NC3=NCCN3)cc2)cc(C(=O)Nc2ccc(NC3=NCCN3)cc2)c1
[4]
  survivor count: 0 of 6
[5]
  survivor count: 0 of 6
[7]
  survivor count: 0 of 6

## Cc1ccc(C)c2c1CCC2C (stereo not drawn)
[8]
  survivor count: 4 of 6 and 5 of 6

## CC(=O)c1ccc(O)c(O)c1O
[9]
  T/C: 133 [5 of 6 alive] and 137 % of control [5 of 6 alive]

## COc1ccc(C(C)c2cc(N=NC(N)=O)c(OC)cc2O)cc1 (stereo not drawn)
[4]
  survivor count: 6 of 6
[5]
  survivor count: 6 of 6
[7]
  survivor count: 6 of 6

## CCCCOc1cccc2c(NCCCCCCNc3c4ccccc4nc4c(OCCCC)cccc34)c3ccccc3nc12
dose: 10.0 mg/kg/injection, schedule: Q## X009 (ip), vehicle: lactic acid
  survivor count: 3 of 6
dose: 20.0 mg/kg/injection, schedule: Q## X009 (ip), vehicle: lactic acid
  survivor count: 0 of 5

## CC1(C)CCC2(C(=O)OC3OC(CO)C(O)C(O)C3O)CCC3(C)C(=CCC4C5(C)CCC(OC6OC(CO)C(O)C(OC7OC(CO)C(O)C(O)C7O)C6O)C(C)(C)C5CCC43C)C2C1 (stereo not drawn)
dose: 100.0 mg/kg/injection, schedule: Q01DX005 (ip), vehicle: Klucel (hydroxypropylcellulose) (HPC)
  survivor count: 5 of 5

## c1ccc(-c2c[s+]c(-c3ccccc3)s2)cc1
dose: 200.0 mg/kg/injection, schedule: Q01DX009 (ip), vehicle: distilled water + Tween-80
  survivor count: 3 of 6

## OC1OCC(COc2ccc(Cl)cc2)OC1O (stereo not drawn)
[10]
  T/C: 129 % of control
[11]
  T/C: 126 % of control
dose: 480.0 mg/kg/injection, schedule: Q01DX005 (ip), vehicle: saline with Tween-80
  survivor count: 2 of 6

## C=C(C)C(=O)OC1CC2(C)OC(=CC2=O)C(C)CC2OC(=O)C(=C)C12 (stereo not drawn)
dose: 100.0 mg/kg/injection, schedule: Q01DX001 (ip), vehicle: saline with Tween-80
  survivor count: 2 of 6

## O=NNc1ccc([N+](=O)[O-])cn1
[12]
  T/C: 130 and 135 % of control
[13]
  T/C: 128 % of control
dose: 50.0 mg/kg/injection, schedule: Q01DX009 (ip), vehicle: water
  survivor count: 3 of 6 and 6 of 6
dose: 100.0 mg/kg/injection, schedule: Q01DX009 (ip), vehicle: water
  survivor count: 0 of 6
dose: 200.0 mg/kg/injection, schedule: Q01DX009 (ip), vehicle: water
  survivor count: 0 of 6

## Cn1c(C(O)CCl)nc2c3ccccc3ccc21 (stereo not drawn)
[13]
  survivor count: 6 of 6
[14]
  survivor count: 6 of 6

## Cn1c(-c2ccccc2)cc2cc(CN)ccc21
[15]
  survivor count: 0 of 6

## c1ccc2c(c1)NC(NC1Nc3ccccc3N1)N2
[10]
  survivor count: 6 of 6
[11]
  survivor count: 2 of 6

## CCn1c2ccccc2c2cc(N=Nc3[nH]c4ccccc4c3CN(C)C)ccc21
[16]
  T/C: 125 % of control

## COc1cc([N+](=O)[O-])ccc1N=Cc1ccc(C=Nc2ccc([N+](=O)[O-])cc2OC)cc1
[15]
  survivor count: 6 of 6

## O=[N+]([O-])c1ccc(/C=[N+](\[O-])CCO)cc1
[17]
  survivor count: 6 of 6

## S=c1[nH]ccn1-c1c(Cl)cccc1Cl
[15]
  survivor count: 6 of 6

## NC(=O)C1=Cc2cccn2-c2ccccc2S1
[6]
  survivor count: 0 of 6

## C=C(C)C1CC=C(/C=N/O)CC1 (stereo not drawn)
[8]
  survivor count: 6 of 6

## O=C(NC(C(=O)O)c1ccc(CCl)cc1)c1ccccc1 (stereo not drawn)
[7]
  survivor count: 2 of 6

## COC(=O)C1=C(C(=O)OC)SC(=C2C3=C(SC(C(=O)OC)=C(C(=O)OC)S3)c3ccccc32)S1
[18]
  survivor count: 6 of 6

## CC(NCc1ccccc1)[Si](C)(C)C (stereo not drawn)
[7]
  survivor count: 0 of 6

## CN=C(NC)c1ccc(NC(=O)c2cc(Cl)cc(C(=O)Nc3ccc(C(=NC)NC)cc3)c2)cc1
[1]
  survivor count: 0 of 6
[2]
  survivor count: 0 of 6
[3]
  survivor count: 0 of 6

## O=C(N/N=C/c1ccc(O)cc1O)c1cccnc1
dose: 200.0 mg/kg/injection, schedule: Q01DX009 (ip), vehicle: olive oil, sesame oil, peanut oil
  survivor count: 0 of 6
dose: 400.0 mg/kg/injection, schedule: Q01DX009 (ip), vehicle: olive oil, sesame oil, peanut oil
  survivor count: 0 of 6

## COc1c2c(nc3ccccc13)-c1cc3c(c(=O)n1C2)COC(=O)C3(O)CC(=O)N1CCOCC1 (stereo not drawn)
[12]
  T/C: 149 % of control
dose: 50.0 mg/kg/injection, schedule: Q01DX009 (ip), vehicle: suspension in saline
  T/C: 137 % of control

## COc1cc(CO)c(CO)cc1OC
dose: 6.25 mg/kg/injection, schedule: Q01DX005 (ip), vehicle: saline
  survivor count: 1 of 5
dose: 12.5 mg/kg/injection, schedule: Q01DX005 (ip), vehicle: saline
  survivor count: 0 of 5
[17]
  survivor count: 0 of 6
[16]
  survivor count: 0 of 6
[8]
  survivor count: 0 of 6

## Cn1ccccc1=O
[13]
  T/C: 95, 100, 107, 109, 111 % of control
dose: 100.0 mg/kg/injection, schedule: Q01DX009 (ip), vehicle: saline
  T/C: 101, 104, 107 (2×), 117 % of control
[14]
  T/C: 98 [5 of 6 alive], 109, 111, 128 % of control
  survivor count: 6 of 6
[9]
  survivor count: 3 of 6, 4 of 6, 6 of 6 (2×)

## NC1[N-]C(C2CCCC[N-]2)CC2C(Cl)CCCC12.O=[N+]([O-])O.O=[N+]([O-])O.[Cu+2] (stereo not drawn)
dose: 25.0 mg/kg/injection, schedule: Q04DX002 (ip), vehicle: suspension in saline
  survivor count: 1 of 6
dose: 100.0 mg/kg/injection, schedule: Q04DX002 (ip), vehicle: suspension in saline
  survivor count: 0 of 6
dose: 200.0 mg/kg/injection, schedule: Q04DX002 (ip), vehicle: suspension in saline
  survivor count: 0 of 6
dose: 400.0 mg/kg/injection, schedule: Q04DX002 (ip), vehicle: suspension in saline
  survivor count: 0 of 6

## COc1ccc(CCN)cc1OC
[9]
  survivor count: 0 of 6
dose: 600.0 mg/kg/injection, schedule: Q01DX009 (ip), vehicle: saline
  survivor count: 0 of 6

## BrCC1C[n+]2c(cc(-c3ccccc3)cc2-c2ccccc2)S1 (stereo not drawn)
dose: 15.0 mg/kg/injection, schedule: Q01DX005 (ip), vehicle: Klucel (hydroxypropylcellulose) (HPC)
  survivor count: 0 of 6
dose: 60.0 mg/kg/injection, schedule: Q01DX005 (ip), vehicle: Klucel (hydroxypropylcellulose) (HPC)
  survivor count: 0 of 6
[18]
  survivor count: 0 of 6
[6]
  survivor count: 0 of 6

From PubChem BioAssay AID330 (DTP/NCI, 2004)
